This experiment has as its target HA-epitope tagged BNRF1 (EBV major tegument protein), wild type (Epstein-Barr virus) (UniProt P03179). The experiment is described as follows: affinity purification with mass spectrometry; HA-tagged BNRF1 (dox 15 h) from P3HR-1 ZHT/RHT induced for lytic replication by 4-HT/NaB 24 h; MCLB buffer (50 mM Tris-HCl pH 7.5, 300 mM NaCl, 0.5% NP40, 1 mM DTT); anti-HA agarose, HA peptide elution; LC-MS/MS, CompPASS against HA-BPLF1, HA-BLRF2, HA-BOLF1 controls.

Sequences of proteins named here, by UniProt entry; tags and fusion partners are left off.
UniProt P03179: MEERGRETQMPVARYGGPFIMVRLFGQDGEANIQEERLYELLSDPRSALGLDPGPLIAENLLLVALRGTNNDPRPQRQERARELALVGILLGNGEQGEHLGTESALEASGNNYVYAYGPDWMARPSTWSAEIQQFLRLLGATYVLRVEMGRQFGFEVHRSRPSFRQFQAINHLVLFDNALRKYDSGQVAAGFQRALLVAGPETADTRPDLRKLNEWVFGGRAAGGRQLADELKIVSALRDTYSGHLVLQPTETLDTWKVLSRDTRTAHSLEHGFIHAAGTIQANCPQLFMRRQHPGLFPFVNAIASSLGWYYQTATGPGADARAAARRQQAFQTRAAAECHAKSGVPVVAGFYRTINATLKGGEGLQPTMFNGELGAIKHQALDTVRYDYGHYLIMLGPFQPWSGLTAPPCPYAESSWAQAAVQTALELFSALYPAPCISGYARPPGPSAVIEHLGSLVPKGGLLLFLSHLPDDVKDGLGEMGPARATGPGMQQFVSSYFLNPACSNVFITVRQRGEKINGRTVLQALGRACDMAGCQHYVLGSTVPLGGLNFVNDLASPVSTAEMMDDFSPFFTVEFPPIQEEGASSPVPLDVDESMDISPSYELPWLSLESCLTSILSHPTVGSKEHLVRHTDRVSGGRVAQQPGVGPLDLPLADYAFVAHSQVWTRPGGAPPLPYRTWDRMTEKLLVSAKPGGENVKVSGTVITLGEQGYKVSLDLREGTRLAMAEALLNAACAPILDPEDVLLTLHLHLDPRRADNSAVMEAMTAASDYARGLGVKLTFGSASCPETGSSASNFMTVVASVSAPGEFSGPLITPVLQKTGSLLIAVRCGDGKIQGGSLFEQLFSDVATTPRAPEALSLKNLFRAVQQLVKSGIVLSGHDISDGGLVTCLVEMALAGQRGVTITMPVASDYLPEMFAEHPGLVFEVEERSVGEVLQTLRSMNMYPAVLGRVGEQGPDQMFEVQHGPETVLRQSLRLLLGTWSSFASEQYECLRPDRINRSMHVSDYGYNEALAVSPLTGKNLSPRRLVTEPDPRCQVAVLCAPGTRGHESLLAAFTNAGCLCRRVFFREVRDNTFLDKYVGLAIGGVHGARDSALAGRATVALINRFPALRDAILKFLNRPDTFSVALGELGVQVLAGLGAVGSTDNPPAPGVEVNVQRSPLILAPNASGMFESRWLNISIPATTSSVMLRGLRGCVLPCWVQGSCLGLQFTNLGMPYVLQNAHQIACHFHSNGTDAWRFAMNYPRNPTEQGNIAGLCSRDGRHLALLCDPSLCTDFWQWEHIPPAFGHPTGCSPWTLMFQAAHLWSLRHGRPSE

These are yes or no findings as the source states them, for the method shown. In cells and extracts the contact can be indirect. A yes stands for co-enrichment or nearness to the bait. Other partners may have been found.

B1: CAPNS1 (calpain regulatory subunit) (protein, UniProt P04632 1-268)
chain: MFLVNSFLKGGGGGGGGGGGLGGGLGNVLGGLISGAGGGGGGGGGGGGGGGGGGGGTAMRILGGVISAISEAAAQYNPEPPPPRTHYSNIEANESEEVRQFRRLFAQLAGDDMEVSATELMNILNKVVTRHPDLKTDGFGIDTCRSMVAVMDSDTTGKLGFEEFKYLWNNIKRWQAIYKQFDTDRSGTICSSELPGAFEAAGFHLNEHLYNMIIRRYSDESGNMDFDNFISCLVRLDAMFRAFKSLDKDGTGQIQVNIQEWLQLTMYS
Consider B1, for which the binding result was “binds”.

(Values after PMC8981113.)
